Assay results as given in the supplement of paper PMC10849652.
This is one part of the list.

By UniProt entry, the sequences of proteins in these tests, tags left out. Where a name states a change or a piece, a line headed by the entry shows the natural chain unless it says otherwise.
UniProt Q92539: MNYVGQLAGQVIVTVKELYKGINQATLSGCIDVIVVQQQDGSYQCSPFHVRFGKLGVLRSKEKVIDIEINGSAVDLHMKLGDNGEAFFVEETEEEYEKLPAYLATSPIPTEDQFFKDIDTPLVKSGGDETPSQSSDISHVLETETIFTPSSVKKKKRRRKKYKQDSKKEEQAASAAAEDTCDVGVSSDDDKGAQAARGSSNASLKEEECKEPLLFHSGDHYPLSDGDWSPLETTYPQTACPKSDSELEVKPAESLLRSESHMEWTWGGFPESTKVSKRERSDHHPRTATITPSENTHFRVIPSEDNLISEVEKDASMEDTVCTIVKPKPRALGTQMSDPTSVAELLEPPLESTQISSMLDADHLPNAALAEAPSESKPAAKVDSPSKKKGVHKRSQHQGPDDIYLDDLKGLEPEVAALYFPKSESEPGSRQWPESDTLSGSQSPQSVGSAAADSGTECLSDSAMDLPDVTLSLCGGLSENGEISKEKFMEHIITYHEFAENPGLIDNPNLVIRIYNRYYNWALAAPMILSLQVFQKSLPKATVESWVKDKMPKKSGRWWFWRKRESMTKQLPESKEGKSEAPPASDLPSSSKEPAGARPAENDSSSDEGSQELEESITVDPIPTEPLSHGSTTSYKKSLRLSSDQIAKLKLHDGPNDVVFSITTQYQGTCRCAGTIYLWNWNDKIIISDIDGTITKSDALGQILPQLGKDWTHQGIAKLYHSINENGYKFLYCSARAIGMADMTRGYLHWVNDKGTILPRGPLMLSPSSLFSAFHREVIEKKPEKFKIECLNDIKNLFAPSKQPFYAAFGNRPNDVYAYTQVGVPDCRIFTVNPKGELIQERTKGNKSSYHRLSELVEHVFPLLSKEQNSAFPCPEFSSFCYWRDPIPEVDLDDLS
UniProt Q9UFC0: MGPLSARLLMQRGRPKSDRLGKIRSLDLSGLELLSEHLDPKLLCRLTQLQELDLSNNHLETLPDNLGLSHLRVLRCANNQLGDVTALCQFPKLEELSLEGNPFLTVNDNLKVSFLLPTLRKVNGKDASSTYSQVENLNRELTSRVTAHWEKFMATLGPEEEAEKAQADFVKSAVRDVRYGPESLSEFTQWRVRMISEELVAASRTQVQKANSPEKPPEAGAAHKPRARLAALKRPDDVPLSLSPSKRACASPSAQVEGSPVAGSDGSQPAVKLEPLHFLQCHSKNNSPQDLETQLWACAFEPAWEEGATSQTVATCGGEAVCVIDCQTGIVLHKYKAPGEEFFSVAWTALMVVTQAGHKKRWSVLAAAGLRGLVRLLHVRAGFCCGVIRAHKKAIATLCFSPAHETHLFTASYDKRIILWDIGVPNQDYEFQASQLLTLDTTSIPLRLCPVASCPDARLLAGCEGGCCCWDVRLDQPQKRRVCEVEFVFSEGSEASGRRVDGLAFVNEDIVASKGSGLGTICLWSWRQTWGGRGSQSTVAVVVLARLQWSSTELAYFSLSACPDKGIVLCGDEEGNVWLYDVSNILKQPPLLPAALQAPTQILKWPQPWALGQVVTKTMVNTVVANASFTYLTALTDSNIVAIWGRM
UniProt P36776: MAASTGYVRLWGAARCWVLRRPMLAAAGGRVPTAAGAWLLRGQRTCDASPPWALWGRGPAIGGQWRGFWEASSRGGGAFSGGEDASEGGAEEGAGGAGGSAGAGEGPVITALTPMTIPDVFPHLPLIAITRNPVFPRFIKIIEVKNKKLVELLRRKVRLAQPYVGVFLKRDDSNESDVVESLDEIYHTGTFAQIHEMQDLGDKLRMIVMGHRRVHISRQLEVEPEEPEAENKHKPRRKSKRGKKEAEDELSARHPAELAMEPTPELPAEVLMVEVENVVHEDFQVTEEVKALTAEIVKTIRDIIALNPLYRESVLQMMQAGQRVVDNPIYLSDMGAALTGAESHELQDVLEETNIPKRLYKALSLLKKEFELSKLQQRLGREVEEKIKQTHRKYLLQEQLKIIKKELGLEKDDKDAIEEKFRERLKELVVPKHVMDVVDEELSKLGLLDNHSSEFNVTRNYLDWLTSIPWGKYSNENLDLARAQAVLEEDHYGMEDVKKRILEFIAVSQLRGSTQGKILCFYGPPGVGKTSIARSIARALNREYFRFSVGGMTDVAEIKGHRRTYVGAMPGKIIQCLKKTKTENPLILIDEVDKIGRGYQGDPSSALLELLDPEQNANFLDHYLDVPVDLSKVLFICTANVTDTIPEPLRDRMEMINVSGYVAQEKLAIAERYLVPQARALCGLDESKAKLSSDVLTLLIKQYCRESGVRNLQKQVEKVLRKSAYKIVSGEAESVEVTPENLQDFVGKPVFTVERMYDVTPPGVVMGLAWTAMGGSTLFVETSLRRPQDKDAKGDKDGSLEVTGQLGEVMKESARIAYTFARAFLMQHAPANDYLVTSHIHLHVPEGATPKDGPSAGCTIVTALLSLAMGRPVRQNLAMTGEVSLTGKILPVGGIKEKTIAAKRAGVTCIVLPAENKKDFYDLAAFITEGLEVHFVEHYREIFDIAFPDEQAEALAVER
UniProt Q9C0E8: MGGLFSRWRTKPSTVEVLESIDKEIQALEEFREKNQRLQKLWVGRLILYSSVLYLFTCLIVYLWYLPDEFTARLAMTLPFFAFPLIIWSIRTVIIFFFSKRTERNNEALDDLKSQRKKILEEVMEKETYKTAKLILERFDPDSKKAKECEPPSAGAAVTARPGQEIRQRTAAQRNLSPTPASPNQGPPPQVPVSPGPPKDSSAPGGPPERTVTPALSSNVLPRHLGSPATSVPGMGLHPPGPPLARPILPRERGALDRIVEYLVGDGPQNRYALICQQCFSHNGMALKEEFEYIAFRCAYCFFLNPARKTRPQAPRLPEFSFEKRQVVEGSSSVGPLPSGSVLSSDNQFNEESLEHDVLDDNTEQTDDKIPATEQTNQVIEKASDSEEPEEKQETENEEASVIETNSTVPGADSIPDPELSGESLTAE
UniProt Q9Y333: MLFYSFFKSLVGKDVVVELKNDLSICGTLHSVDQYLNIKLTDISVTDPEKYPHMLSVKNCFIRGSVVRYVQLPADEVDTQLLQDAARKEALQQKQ
UniProt Q9Y4Z0: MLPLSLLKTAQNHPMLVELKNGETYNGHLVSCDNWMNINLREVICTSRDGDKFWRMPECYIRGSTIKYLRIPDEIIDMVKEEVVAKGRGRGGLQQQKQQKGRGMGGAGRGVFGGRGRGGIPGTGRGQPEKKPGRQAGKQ
UniProt Q15048: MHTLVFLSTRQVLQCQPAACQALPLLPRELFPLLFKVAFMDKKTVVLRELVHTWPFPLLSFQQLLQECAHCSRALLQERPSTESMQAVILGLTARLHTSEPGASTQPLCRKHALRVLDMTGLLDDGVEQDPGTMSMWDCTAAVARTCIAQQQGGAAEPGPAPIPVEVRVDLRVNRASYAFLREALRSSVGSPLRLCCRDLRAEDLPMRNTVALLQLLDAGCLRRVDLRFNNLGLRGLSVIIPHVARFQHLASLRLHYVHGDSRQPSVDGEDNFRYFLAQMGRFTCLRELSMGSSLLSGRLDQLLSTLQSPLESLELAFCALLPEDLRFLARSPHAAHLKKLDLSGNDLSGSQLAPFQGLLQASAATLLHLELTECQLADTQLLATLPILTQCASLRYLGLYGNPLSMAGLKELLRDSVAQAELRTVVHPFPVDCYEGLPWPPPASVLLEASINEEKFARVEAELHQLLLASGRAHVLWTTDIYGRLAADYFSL
UniProt P07195, whole entry, looked up: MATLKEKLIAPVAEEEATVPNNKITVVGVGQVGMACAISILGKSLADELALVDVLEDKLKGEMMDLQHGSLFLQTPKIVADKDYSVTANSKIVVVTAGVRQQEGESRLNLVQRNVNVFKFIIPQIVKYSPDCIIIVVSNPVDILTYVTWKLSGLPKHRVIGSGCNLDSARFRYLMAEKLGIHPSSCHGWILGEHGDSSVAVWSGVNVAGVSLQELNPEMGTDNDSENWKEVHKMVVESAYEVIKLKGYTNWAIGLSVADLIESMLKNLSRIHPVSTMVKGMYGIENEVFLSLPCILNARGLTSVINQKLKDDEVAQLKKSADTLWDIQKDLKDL
UniProt O95777: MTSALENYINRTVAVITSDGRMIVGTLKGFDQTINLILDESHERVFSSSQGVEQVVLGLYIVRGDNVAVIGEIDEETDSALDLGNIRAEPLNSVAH
UniProt Q8IWT6: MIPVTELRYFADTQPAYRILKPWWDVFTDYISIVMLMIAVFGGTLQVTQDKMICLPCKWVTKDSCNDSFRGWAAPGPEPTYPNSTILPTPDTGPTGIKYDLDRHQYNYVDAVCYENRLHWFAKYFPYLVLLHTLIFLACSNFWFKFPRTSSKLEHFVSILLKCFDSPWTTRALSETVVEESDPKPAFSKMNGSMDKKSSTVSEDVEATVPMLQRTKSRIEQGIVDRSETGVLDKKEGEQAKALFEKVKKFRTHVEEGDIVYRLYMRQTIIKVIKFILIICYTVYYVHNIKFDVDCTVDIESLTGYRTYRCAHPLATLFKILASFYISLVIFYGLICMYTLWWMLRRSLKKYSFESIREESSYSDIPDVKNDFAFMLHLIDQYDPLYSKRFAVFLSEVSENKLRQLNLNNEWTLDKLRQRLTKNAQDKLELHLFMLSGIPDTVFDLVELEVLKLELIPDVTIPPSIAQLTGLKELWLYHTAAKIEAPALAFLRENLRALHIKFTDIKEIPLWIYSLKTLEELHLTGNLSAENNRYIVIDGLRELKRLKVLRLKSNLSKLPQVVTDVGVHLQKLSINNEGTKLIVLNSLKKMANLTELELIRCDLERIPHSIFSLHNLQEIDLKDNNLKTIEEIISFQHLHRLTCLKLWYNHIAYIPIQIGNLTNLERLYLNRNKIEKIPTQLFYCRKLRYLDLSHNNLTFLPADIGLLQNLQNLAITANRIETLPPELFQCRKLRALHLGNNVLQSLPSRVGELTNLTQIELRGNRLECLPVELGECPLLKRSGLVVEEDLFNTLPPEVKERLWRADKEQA
UniProt Q969L4: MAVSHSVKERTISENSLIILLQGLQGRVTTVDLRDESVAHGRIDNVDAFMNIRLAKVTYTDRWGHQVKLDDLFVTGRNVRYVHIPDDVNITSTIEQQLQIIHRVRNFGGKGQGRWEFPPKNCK
UniProt Q7L1W4: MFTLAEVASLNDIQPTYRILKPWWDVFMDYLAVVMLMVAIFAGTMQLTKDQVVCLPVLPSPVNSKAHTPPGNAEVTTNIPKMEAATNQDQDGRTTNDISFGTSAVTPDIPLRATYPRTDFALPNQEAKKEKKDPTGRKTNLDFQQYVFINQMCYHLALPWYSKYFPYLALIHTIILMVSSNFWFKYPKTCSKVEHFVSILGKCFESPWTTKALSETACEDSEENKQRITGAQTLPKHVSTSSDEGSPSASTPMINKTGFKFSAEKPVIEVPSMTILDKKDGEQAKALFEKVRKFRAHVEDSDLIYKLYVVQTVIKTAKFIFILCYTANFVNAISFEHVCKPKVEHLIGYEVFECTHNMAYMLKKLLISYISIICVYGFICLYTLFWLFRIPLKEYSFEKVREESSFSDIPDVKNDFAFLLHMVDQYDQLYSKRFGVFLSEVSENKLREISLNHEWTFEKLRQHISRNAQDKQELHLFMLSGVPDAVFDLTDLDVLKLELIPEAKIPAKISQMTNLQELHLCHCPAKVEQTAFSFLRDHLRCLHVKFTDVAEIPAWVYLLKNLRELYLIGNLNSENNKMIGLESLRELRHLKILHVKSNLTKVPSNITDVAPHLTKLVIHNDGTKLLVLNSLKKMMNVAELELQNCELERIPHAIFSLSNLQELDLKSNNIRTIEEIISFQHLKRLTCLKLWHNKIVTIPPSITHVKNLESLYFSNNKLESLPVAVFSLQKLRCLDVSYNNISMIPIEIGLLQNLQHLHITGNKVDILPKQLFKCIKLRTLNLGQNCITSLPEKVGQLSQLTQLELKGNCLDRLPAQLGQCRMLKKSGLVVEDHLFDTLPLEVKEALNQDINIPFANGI
UniProt P13796: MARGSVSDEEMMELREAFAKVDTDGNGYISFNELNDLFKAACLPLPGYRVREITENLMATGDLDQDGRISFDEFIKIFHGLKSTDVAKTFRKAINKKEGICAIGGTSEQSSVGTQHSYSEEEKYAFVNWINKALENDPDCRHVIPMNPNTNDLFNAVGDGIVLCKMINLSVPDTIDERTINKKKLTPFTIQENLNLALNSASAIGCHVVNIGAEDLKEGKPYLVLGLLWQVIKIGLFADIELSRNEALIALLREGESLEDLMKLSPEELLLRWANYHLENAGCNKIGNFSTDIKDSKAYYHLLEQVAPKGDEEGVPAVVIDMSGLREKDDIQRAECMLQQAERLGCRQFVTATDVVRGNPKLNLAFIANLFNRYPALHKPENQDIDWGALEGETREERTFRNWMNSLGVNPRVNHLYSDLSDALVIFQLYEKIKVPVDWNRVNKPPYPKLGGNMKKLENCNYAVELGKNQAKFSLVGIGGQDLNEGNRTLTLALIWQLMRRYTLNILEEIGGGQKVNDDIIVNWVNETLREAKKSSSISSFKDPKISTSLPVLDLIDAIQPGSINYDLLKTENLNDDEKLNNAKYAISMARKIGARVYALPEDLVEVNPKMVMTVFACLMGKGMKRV
UniProt P62312: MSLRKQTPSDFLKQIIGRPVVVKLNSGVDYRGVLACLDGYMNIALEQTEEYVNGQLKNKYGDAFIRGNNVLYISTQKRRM

Assays:
Test in all cases: log2 fold change, soluble protein after heating vs DMSO (PISA); higher = thermal stabilisation; K562 lysate, 10 uM; active = over 0.2 and 3.5 SD of the protein, either way, in both replicates (recomputed)
[1] = compound: C1=CC=C(C=C1)[C@H](COC2=CC3=C(C=C2)NC(=O)N3)NC(=O)C4=CC=CN(C4=O)CC5=CC(=C(C=C5)F)F
Outline: (§1)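 K562 pellets were dounce-homogenised in PBS pH 7.4 with 1 mM MgCl2, and the crude extract at 1 mg/mL protein was treated with 10 μM compound for 30 min. Aliquots were heated for 3 min across 48°C-58°C, pooled, and brought to 0.5% NP-40 at 4°C; soluble protein was the supernatant after 21,000xg for 90 min. Soluble protein was quantified by TMTpro 16plex LC-MS/MS with channel sums equalised, and reported as log2 fold change in thermal stability against DMSO controls, with values from duplicates.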

[2] = compound: CC1=C(SC2=C1C(=N[C@H](C3=NN=C(N32)C)CC(=O)N)C4=CC=C(C=C4)Cl)C
Outline: as §1

[3] = compound: CC1=C2C(=CC=C1)N=C(N(C2=O)C3=CC=CC=C3C)CN4C=NC5=C(N=CN=C54)N
Outline: as §1

[4] = compound: Cc1sc2c(c1C)C(c1ccc(Cl)cc1)=N[C@@H](CC(=O)OC(C)(C)C)c1nnc(C)n1-2
Outline: as §1

[5] = compound: c1ccc([C@@H]2C[C@H]2NC2CCNCC2)cc1
Outline: as §1

Measured: log2 fold change

LPIN2 (UniProt Q92539)
inactive: [1] 0.01 | [2] -0.037 | [3] -0.004 | [4] -0.047 | [5] -0.012

LIG3 (UniProt P49916)
inactive: [1] -0.003 | [2] -0.018 | [3] -0.014 | [4] -0.035 | [5] 0.021

LRRFIP1 (UniProt Q32MZ4)
inactive: [1] 0.015 | [2] 0.013 | [3] -0.031 | [4] -0.043 | [5] -0.032

LRWD1 (UniProt Q9UFC0)
inactive: [1] -0.027 | [2] 0.044 | [3] -0.012 | [4] 0.023 | [5] 0.039

LONP1 (UniProt P36776)
inactive: [1] -0.008 | [2] 0.025 | [3] -0.004 | [4] 0.023 | [5] 0.002

LNPK (UniProt Q9C0E8)
inactive: [1] 0.066 | [2] 0 | [3] 0.009 | [4] -0.046 | [5] -0.077

LSR (UniProt Q86X29)
inactive: [1] -0.048 | [2] -0.02 | [3] 0.014 | [4] 0.005 | [5] -0.012

LSM2 (UniProt Q9Y333)
inactive: [1] -0.018 | [2] 0.023 | [3] 0.031 | [4] -0.003 | [5] -0.007

LRRFIP2 (UniProt Q9Y608)
inactive: [1] 0.034 | [2] -0.028 | [3] -0.026 | [4] -0.002 | [5] 0.004

LSM4 (UniProt Q9Y4Z0)
inactive: [1] 0 | [2] 0.013 | [3] -0.016 | [4] -0.03 | [5] -0.034

LRRC14 (UniProt Q15048)
inactive: [1] 0.017 | [2] 0.104 | [3] 0.02 | [4] -0.069 | [5] -0.049

LDHB (UniProt P07195)
inactive: [1] 0.01 | [2] 0.027 | [3] -0.004 | [4] -0.007 | [5] -0.009

LRRC59 (UniProt Q96AG4)
inactive: [1] 0.001 | [2] -0.015 | [3] 0.022 | [4] 0.064 | [5] -0.052

LSM8 (UniProt O95777)
inactive: [1] -0.057 | [2] -0.012 | [3] 0.017 | [4] -0.004 | [5] -0.029

LRRC8A (UniProt Q8IWT6)
inactive: [1] -0.086 | [2] 0.117 | [3] 0.028 | [4] 0.012 | [5] 0.011

LSM1 (UniProt O15116)
inactive: [1] 0.056 | [2] 0.038 | [3] 0 | [4] 0.038 | [5] 0.032

LSM14A isoform 2 (UniProt Q8ND56)
inactive: [1] 0.037 | [2] 0.023 | [3] 0.015 | [4] 0.043 | [5] -0.064

LEPR (UniProt P48357)
inactive: [1] 0.013 | [2] -0.044 | [3] -0.035 | [4] -0.009 | [5] -0.068

LIN28B (UniProt Q6ZN17)
inactive: [1] 0.028 | [2] -0.033 | [3] -0.002 | [4] -0.024 | [5] -0.059

LSM10 (UniProt Q969L4)
inactive: [1] -0.023 | [2] -0.145 | [4] 0.099 | [5] -0.047

LRRC8D (UniProt Q7L1W4)
inactive: [1] -0.021 | [2] 0.015 | [3] 0.038 | [4] 0.025 | [5] -0.04

LCP1 (UniProt P13796)
inactive: [1] 0.032 | [2] -0.013 | [3] -0.026 | [4] -0.004 | [5] -0.072

LIN54 (UniProt Q6MZP7)
inactive: [1] -0.004 | [2] -0.006 | [3] -0.054 | [4] 0.049 | [5] 0

LSM6 (UniProt P62312)
inactive: [1] 0.044 | [2] 0 | [3] -0.014 | [4] -0.037 | [5] 0.023

LIAS (UniProt O43766)
inactive: [1] 0.017 | [2] -0.015 | [3] -0.034 | [4] -0.058 | [5] -0.017

Reprinted from above (2 entries):
LRRC8D (UniProt Q7L1W4)
inactive: [1] -0.021 | [2] 0.015 | [3] 0.038 | [4] 0.025 | [5] -0.04

LCP1 (UniProt P13796)
inactive: [1] 0.032 | [2] -0.013 | [3] -0.026 | [4] -0.004 | [5] -0.072
